No constants are given. Whether binding was seen depends on the method and setting. Binding seen in cells or lysates may run through a third protein. Some entries that bind do so weakly or less than the wild type.
Columns and labels:
[1] = target: SETD2 (SET domain containing 2), from SETD2 expression plasmid (UniProt Q9BYW2); test: co-IP; PLC/PRF/5 cells co-transfected with SETD2 and PPM1A plasmids, with TGF-β1 treatment
[2] = target: SETD2 (SET domain containing 2), from SETD2 expression plasmid (UniProt Q9BYW2); test: co-IP; PLC/PRF/5 cells co-transfected with SETD2 and PPM1A plasmids, without TGF-β1 treatment
[3] = target: SETD2 (SET domain containing 2), from SETD2 expression plasmid (UniProt Q9BYW2); test: co-IP; MALAT1 depleted or control PLC/PRF/5 cells transfected with flag-Smad2/3, PPM1A or SETD2 plasmids as indicated in the panels, TGF-β1 for 1-2 hours; IP and Western blotting

Amino acid sequences for entries named in this document (tags omitted).
UniProt Q9BYW2: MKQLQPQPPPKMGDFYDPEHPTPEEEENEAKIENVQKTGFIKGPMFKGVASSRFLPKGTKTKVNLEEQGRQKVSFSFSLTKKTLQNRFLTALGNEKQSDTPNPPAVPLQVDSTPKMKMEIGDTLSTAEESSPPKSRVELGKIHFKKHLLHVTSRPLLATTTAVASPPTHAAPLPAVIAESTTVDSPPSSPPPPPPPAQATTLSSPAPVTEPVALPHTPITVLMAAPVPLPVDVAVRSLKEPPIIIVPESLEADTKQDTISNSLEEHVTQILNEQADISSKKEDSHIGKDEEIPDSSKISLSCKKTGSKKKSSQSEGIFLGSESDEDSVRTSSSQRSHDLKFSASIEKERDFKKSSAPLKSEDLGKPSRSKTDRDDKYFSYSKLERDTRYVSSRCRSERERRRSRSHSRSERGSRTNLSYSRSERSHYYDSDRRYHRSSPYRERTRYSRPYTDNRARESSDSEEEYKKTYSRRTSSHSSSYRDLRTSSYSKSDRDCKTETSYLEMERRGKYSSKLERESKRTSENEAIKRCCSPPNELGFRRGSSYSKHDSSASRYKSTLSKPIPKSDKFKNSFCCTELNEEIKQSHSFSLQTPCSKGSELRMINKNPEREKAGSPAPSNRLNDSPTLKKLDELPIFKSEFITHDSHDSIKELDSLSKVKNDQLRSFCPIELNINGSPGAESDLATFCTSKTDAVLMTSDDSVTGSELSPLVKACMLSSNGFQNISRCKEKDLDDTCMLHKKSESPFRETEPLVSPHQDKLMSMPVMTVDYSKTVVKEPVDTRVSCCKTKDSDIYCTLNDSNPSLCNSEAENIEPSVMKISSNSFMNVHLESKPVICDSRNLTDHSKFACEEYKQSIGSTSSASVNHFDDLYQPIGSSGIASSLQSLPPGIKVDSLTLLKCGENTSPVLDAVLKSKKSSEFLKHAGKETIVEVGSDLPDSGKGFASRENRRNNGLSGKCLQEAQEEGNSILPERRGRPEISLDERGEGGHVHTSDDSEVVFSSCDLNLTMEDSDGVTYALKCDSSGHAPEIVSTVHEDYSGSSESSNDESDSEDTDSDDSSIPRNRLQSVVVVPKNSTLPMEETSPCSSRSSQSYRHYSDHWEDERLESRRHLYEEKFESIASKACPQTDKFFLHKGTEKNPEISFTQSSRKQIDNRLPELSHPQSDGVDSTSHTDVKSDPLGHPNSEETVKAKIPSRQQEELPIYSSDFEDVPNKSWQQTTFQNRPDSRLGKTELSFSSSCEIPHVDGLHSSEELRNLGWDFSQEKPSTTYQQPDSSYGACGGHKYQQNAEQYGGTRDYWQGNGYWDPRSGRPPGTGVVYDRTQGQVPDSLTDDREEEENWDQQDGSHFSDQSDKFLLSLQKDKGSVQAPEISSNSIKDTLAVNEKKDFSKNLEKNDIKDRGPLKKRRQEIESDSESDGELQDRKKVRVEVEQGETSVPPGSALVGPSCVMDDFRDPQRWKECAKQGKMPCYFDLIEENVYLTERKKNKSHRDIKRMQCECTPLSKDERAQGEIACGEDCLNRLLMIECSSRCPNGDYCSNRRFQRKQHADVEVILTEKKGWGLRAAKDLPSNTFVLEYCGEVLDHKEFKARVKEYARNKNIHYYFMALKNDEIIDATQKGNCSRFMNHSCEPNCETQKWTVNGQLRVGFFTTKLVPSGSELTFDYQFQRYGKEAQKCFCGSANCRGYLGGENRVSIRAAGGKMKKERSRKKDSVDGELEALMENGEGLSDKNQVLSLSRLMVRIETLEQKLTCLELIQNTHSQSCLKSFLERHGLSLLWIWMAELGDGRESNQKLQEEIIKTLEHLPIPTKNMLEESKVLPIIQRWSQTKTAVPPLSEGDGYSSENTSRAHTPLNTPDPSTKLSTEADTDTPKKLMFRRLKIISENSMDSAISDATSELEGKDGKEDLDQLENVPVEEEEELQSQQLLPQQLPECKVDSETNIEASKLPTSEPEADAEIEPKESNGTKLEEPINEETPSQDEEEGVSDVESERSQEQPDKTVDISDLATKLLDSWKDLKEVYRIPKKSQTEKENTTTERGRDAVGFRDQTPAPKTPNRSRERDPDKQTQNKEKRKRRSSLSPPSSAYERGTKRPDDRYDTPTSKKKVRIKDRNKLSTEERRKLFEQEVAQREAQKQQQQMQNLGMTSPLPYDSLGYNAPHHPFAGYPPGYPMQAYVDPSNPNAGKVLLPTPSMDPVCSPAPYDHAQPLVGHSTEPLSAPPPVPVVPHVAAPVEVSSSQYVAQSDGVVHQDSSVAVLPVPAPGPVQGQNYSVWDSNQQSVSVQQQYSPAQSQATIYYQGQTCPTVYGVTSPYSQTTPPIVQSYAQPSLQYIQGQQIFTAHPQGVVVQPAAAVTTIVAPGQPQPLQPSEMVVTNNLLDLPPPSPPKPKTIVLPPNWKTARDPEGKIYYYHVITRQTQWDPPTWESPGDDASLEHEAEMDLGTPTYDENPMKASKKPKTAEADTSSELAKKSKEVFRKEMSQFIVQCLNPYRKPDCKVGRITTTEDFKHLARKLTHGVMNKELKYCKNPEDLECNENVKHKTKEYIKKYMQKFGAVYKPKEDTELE

B1: PPM1A (protein phosphatase, Mg2+/Mn2+ dependent, 1A), from PPM1A expression plasmid (enzyme, UniProt P35813 1-382)
chain: MGAFLDKPKMEKHNAQGQGNGLRYGLSSMQGWRVEMEDAHTAVIGLPSGLESWSFFAVYDGHAGSQVAKYCCEHLLDHITNNQDFKGSAGAPSVENVKNGIRTGFLEIDEHMRVMSEKKHGADRSGSTAVGVLISPQHTYFINCGDSRGLLCRNRKVHFFTQDHKPSNPLEKERIQNAGGSVMIQRVNGSLAVSRALGDFDYKCVHGKGPTEQLVSPEPEVHDIERSEEDDQFIILACDGIWDVMGNEELCDFVRSRLEVTDDLEKVCNEVVDTCLYKGSRDNMSVILICFPNAPKVSPEAVKKEAELDKYLECRVEEIIKKQGEGVPDLVHVMRTLASENIPSLPPGGELASKRNVIEAVYNRLNPYKNDDTDSTSTDDMW
For B1, which binding [1] is on record?
Its binding is “binds”.

And the binding [2]?
Its binding is “no binding (condition: without TGF-β1 treatment)”.

What about the binding [3] of the same binder?
Its binding is “binds”.

— paper PMC6988980
